This passage reports binding results from article PMC12892918.

This assay has as its target RCOR1 (human (endogenous in 1205Lu, 451Lu and SKMEL5)) (UniProt Q9UKL0). Description: affinity purification with mass spectrometry; IP of endogenous LSD1 or RCOR1 from 1205Lu and 451Lu melanoma cells (DMSO control), LC-MS/MS, in duplicate.

No constants are given. Whether binding was seen depends on the method and setting. Binding seen in cells or lysates may run through a third protein. Here binding means that the protein was enriched with, or labelled near, the bait; the list need not be complete.

B1: CTCF (protein, UniProt P49711 1-727)
chain: MEGDAVEAIVEESETFIKGKERKTYQRRREGGQEEDACHLPQNQTDGGEVVQDVNSSVQMVMMEQLDPTLLQMKTEVMEGTVAPEAEAAVDDTQIITLQVVNMEEQPINIGELQLVQVPVPVTVPVATTSVEELQGAYENEVSKEGLAESEPMICHTLPLPEGFQVVKVGANGEVETLEQGELPPQEDPSWQKDPDYQPPAKKTKKTKKSKLRYTEEGKDVDVSVYDFEEEQQEGLLSEVNAEKVVGNMKPPKPTKIKKKGVKKTFQCELCSYTCPRRSNLDRHMKSHTDERPHKCHLCGRAFRTVTLLRNHLNTHTGTRPHKCPDCDMAFVTSGELVRHRRYKHTHEKPFKCSMCDYASVEVSKLKRHIRSHTGERPFQCSLCSYASRDTYKLKRHMRTHSGEKPYECYICHARFTQSGTMKMHILQKHTENVAKFHCPHCDTVIARKSDLGVHLRKQHSYIEQGKKCRYCDAVFHERYALIQHQKSHKNEKRFKCDQCDYACRQERHMIMHKRTHTGEKPYACSHCDKTFRQKQLLDMHFKRYHDPNFVPAAFVCSKCGKTFTRRNTMARHADNCAGPDGVEGENGGETKKSKRGRKRKMRSKKEDSSDSENAEPDLDDNEDEEEPAVEIEPEPEPQPVTPAPPPAKKRRGRPPGRTNQPKQNQPTAIIQVEDQNTGAIENIIVEVKKEPDAEPAEGEEEEAQPAATDAPNGDLTPEMILSMMDR
As for B1, the binding result was “binds”.
